Results taken from publication PMC7496117, “A zinc finger protein BBX19 interacts with ABF3 to affect drought tolerance negatively in chrysanthemum”.

Tested on: GST-CmBBX19 (Chrysanthemum morifolium)
Test: EMSA
Settings: 3 ug protein, LightShift Chemiluminescent EMSA kit, 20 ul reaction, biotin probe 50 nM or 2 nM (Methods), pH and temperature not stated, recombinant protein, protein details: GST (N-terminal, pGEX)

GAAATTAGACACGTACTTTTCAGTGATAACATAAACATACTTACGTGTTC (double strand) [proRAB18-probe (CmRAB18 promoter, two ABRE motifs)]
binding result: no binding

Construct, isoform or probe ends are uncertain for at least one entry. Negatives hold for the conditions tested.
